Literature values as cited in patent US20170369677A1, “MATERIALS FREE OF ENDOCRINE DISRUPTIVE ACTIVITY” (CertiChem, Inc., priority 2006, published 2017).
Some entries share one result that the patent states for a list of compounds. At least one structure is not confirmed: it was looked up by name or label, or the drawing left a doubt.

Tested on: ER

**Q.** With COc1ccc(O)c(C(C)(C)C)c1 [BHA, Butylated hydroxyanisole] as the compound, how does the RBAs read?
**A.** Its RBAs is −4 to −5.
